From publication PMC5384239 come the findings set out here.

Amino acid sequences for entries named in this document (tags omitted).
UniProt P63104: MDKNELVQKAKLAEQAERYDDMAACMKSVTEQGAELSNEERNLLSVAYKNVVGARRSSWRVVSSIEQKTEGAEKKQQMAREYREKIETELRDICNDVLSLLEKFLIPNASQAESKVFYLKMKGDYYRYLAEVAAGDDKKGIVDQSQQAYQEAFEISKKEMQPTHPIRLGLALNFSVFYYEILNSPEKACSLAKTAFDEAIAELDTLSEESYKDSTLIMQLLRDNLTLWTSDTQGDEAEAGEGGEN
UniProt Q29495: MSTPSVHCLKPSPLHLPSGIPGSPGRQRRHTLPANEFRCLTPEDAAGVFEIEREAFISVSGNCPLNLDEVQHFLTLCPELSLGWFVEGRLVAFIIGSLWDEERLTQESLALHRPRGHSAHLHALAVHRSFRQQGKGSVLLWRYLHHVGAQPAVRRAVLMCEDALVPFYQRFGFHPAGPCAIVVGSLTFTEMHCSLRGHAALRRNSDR

Results are given in words; binding and its absence hold for the method and conditions named. Some entries that bind do so weakly or less than the wild type.

For this assay, the target named is 14-3-3 protein ζ isoform (UniProt P63104). Briefly: stopped-flow polarized fluorescence; kinetics of binding followed by changes in the polarized fluorescence intensity of the AANAT-GFP fusion protein; AANAT phosphorylated at Thr31; 0.1 M Hepes, pH 6.8, 8 °C.

In the case of “aralkylamine N-acetyltransferase (AANAT), wild type, phosphorylated at Thr31, GFP fusion (from UniProt Q29495 1-207) (enzyme)”, the binding entry is reported as “binds”.
